Our source for the z-score values is PubChem BioAssay AID1508600 (Functional Genomics Laboratory (NCATS/FGL), 2020).

Out of some 53,000 sequences screened, about 3,700 (7%) were called active.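 How the source made its calls: active means gene knockdowns whose robust z-score for IL-1 alpha signal is at least 2 or at most -2, so actives lie on both sides; inactive means the rest.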 This is one part of the list.

The assay in a line: Components of the Cytosolic LPS Sensing Pathway: Gene Identification via Genome-wide siRNA Screen.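 Further: robust z of the log signal after scaling to non-targeting control siRNA wells of the plate.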 The note with it: RAW264.7 macrophages, IL-1a HTRF, actives lie on both sides, screened at 100 nM (by protocol), cells primed 5 h with Pam3CSK4 first. In short, it runs like this: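 RAW264.7 mouse macrophages reverse-transfected with single siRNAs (100 nM final) for 48h, primed with Pam3CSK4 for 5 hours, then transfected with LipidA for 24 hour. Supernatant IL-1a read by HTRF; values normalized to negative-control median, log-transformed robust z-scores.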
On the technique in general: TR-FRET usually uses a lanthanide donor and a delayed reading to cut background.
As to GGAUUGCCGAAACUGUACATT against Ucp1, the z-score was inactive: 0.567.
Then GGUAUAUAGGGCUGUGGCUTT against Pigs, with inactive: -0.822; and GGCUAUGAAGAAAACAUGUTT against Gpx7, with inactive: 0.0025; and CCAGACUAUUUAACUUGAGTT against Adrb2, with inactive: 0.12.
Then GGAGAGACAUCCAAAAGUATT against H60a, with inactive: 0.658.
For GGAGAUAUGUUCAUUGUUCTT against Rasa1, the z-score was inactive: 1.01.
For the sequence GGACUCUUACGCCUCAUCATT against Zfp955a, the z-score is inactive: -0.945.
As to GCAAUCGAGCUGAAACUAGTT against Hat1, the z-score is inactive: 0.721.
Then GGACAAAUGGUAUUGUAGUTT against Coa5, with inactive: -1.72; and GCUGAUCCUUAACUUAAAGTT against Adam1b, with inactive: -0.242; and GGAAAAAGCCCUUGAACAUTT against Tnnt1, with inactive: 1.48.
Then GCCUUUUGAGUAUAACGAATT against Zfp248, with inactive: -0.228; and GGCUGAAUAGUCCUAGCAGTT against Poglut3, with inactive: -0.19; and GGAAGCCAAAGAAAAGUUCTT against Ski, with inactive: -0.893.
Then CCCAGAACACCGUAUACUUTT against Itga3, with active: 3.95; and GGAAAUUGCAUGUGAAAUUTT against Prrc2b, with inactive: -0.256; and GGAGAGCACAAAGAACAUUTT against Med6, with inactive: 0.62.
Take GGCCUUUUUACCUGUGCACTT against Pigx: the z-score is inactive: -0.946.
Then GGACAAGUAUAGCCAUCUUTT against Spag7, with inactive: -0.263; and CCACCUGAAUCAUUACUCATT against Rdh19, with active: -3.29; and GGUUCUUUUCAGCUCAUUATT against Toporsl, with inactive: -0.0962.
Then “GGGAGAAAGAUUGUAACUATT against 1110032A03Rik”, with inactive: -1.05; and GGGUUAAAUGCAAUGCAGCTT against Celf1, with inactive: 0.301.
Take GCUUGGUUGGCCUUUUCCATT against Olfr320: the z-score is inactive: -1.04.
Then “GCUUAAGUGCAGUAAUAUCTT against 4932411N23Rik”, with inactive: -1.65.
Then GGCCAACAUGCUAUACUUCTT against Stat2, with inactive: 0.473.
For the sequence GGAUGAUACCUCCAAUAACTT against Mucl1, the z-score is inactive: -1.54.
CCCACAGGACUCAUUAACATT against Rab4a: the z-score is inactive: -1.27.
Then GGAUCUACUAGGAAAGAAATT against Serpini1, with inactive: -0.0499.
